Assay results published in US6808875B2, “Methods for screening cellular proliferation using isotope labels” (priority 1997, dated 2004).

Assays:
[1] = test system: hepatocyte cell line, HepG2; experiment: Label incorporation into dA of DNA in cultured HepG2 cells (GC-MS, cell counting); format: cell-based
Protocol: (§1) DNA was prepared from cells or tissues by phenol-chloroform-isoamyl alcohol extraction of cell suspensions or tissue homogenates. Yield and purity were confirmed by optical density. After heat denaturation, DNA was hydrolyzed enzymatically to deoxyribonucleosides by sequential digestion with nuclease P1, phosphodiesterase, and alkaline phosphatase, as described by Crain et al. (Crain, 1990, Methods Enzymol. 193:782-790). Nucleoside yield and purity were confirmed by HPLC using a C-18 column and water-methanol gradient (Shigenaga et al., 1994, Methods Enzymol. 234:16-33).
(§2) Trimethylsilyl derivatives of nucleosides were synthesized by incubation of lyophilized hydrolysates with BSTFA:pyridine (4:1) at 100° C. for 1 hour. Samples were analyzed by GC-MS (DB-17 HT column, J&W Scientific, Folsom Calif.; HP 5890 GC and 5971MS, Hewlett Packard, Palo Alto, Calif.). Abundances of ions at mass to charge ratio (m/z) 467 and 469 were quantified under selected ion recording mode for deoxyadenosine (dA); and m/z 555 and 557 were monitored for deoxyguanosine (dG). Under the derivatization and GC-MS conditions employed, the purines (dA and dG) gave larger peaks (FIG. 3) than the pyrimidines, resulting in greater sensitivity and a higher signal-to-noise ratio. To measure the enrichment of glucose, plasma or culture media were deproteinized with perchloric acid and passed through anion and cation exchange columns (Neese et al., 1995, J. Biol. Chem. 270:14452-14463). The glucose penta-acetate derivative was formed by incubation with acetic anhydride in pyridine. GC-MS analysis was performed as described previously (Neese et al., 1995, J. Biol. Chem […]), monitoring m/z 331 and 333 under selected ion recording.
(§3) Two cell lines were used: a hepatocyte cell line, HepG2, and a lymphocytic cell line, H9, which is a CD4^+ T cell line. HepG2 cells were grown in 10 ml dishes with alpha-modified Dulbecco's minimum essential media (MEM). H9 cells were grown in suspension in RPMI 1640. Both were grown in the presence of 10% dialyzed fetal calf serum and antibiotics (all reagents were obtained from Gibco-BRL, Gaithersburg, Md., except where stated). In both cases the number of cells present was measured by counting an aliquot on a Coulter ZM0901 cell counter. For HepG2 cells, plating efficiency was corrected for by counting an identical plate at the beginning of each labeling phase. […] In some experiments, glucose free medium was used and only 100% labeled glucose was present in the medium. Additional experiments were carried out in the presence of [U-^13C6] glucose and [2-^13C1] glycerol (Cambridge Isotope Laboratories, Andover, Mass.).
(§4) The above cell culture experiments were performed in the absence of deoxyribonucleosides in the medium. […]

[2] = test system: lymphocytic cell line, H9; experiment: Label incorporation into dA of DNA in cultured H9 cells (GC-MS, cell counting); format: cell-based
Protocol: as §1, §2, §3, §4

[3] = test system: intestinal epithelium, thymus, liver; experiment: In vivo incorporation of [6,6-^2H2] glucose into dA in DNA in various tissues in rats; settings: for dA Enrichment: ca. 24 hr iv infusion
[4] = rat intestinal epithelium, linear kinetic model

OC[13CH](O)CO [[2-^13C1] glycerol]
Incorporation of ^13C into dA ([1]; HepG2, 20 μg/ml): negligible incorporation | dA pentose ring synthesis arising from GNG (MIDA) ([1]; HepG2, 100 μg/ml): 17.8% | GNG contribution to dA (MIDA) ([2]; H9, 100 μg/ml): no measurable GNG

[2H]C([2H])(O)[C@H]1OC(O)[C@H](O)[C@@H](O)[C@@H]1O (some centres unmarked) [[6,6-^2H2] glucose]
Maximum enrichment of dA ([1]; HepG2, 100% labeled glucose medium, 53 days): about 65% | Maximum enrichment of dA ([2]; H9, 100% labeled glucose medium, 25 days): about 65% | Estimated plateau dA enrichment, as fraction of the medium glucose enrichment ([2]; H9, extrapolation to 100% new cells): 0.525 | Percent New Cells, Uncorrected ([3]; rat intestinal epithelium): 34.6 ± 4.2 | dA Enrichment ([3]; rat intestinal epithelium): 3.18 ± 0.24% | Turnover time, Corrected [3, 4]: 1.8 ± 0.2 days and 1.84 ± 0.24 days | Turnover time, Uncorrected [3, 4]: 2.8 ± 0.4 days and 2.83 ± 0.37 days | Percent New Cells, Corrected ([3]; rat intestinal epithelium, […] plasma glucose enrichment): 53.2 ± 6.5 | Percent New Cells, Corrected ([3]; rat liver): 4.2 ± 0.9 | Percent New Cells, Uncorrected ([3]; rat liver): 2.7 ± 0.5 | dA Enrichment ([3]; rat liver): 0.25 ± 0.06% | Rate Constant, K, Corrected ([3]; rat liver, exponential model): 0.044 ± 0.008 day⁻¹ | Rate Constant, K, Uncorrected ([3]; rat liver, exponential model): 0.028 ± 0.005 day⁻¹ | t1/2, Corrected ([3]; rat liver, exponential model): 16.2 ± 3.1 days | t1/2, Uncorrected ([3]; rat liver, exponential model): 25.4 ± 4.9 days | Percent New Cells, Corrected ([3]; rat thymus): 38.9 ± 3.1 | Percent New Cells, Uncorrected ([3]; rat thymus): 25.3 ± 2.2 | dA Enrichment ([3]; rat thymus): 2.33 ± 0.08% | Rate Constant, K, Corrected ([3]; rat thymus, exponential model): 0.51 ± 0.058 day⁻¹ | Rate Constant, K, Uncorrected ([3]; rat thymus, exponential model): 0.302 ± 0.030 day⁻¹ | t1/2, Uncorrected ([3]; rat thymus, exponential model): 2.31 ± 0.23 days

O[13CH2][13C@H]1O[13CH](O)[13C@H](O)[13C@@H](O)[13C@@H]1O (some centres unmarked) [[U-^13C6] glucose]
Asymptote of M5 enrichment of dA, % of the extracellular enrichment ([1]; HepG2, 10% labeled glucose): approximately 80% | Asymptote of M5 enrichment of dA, % of extracellular glucose enrichment ([2]; H9, 10% labeled glucose): approximately 60%

Several values for one entry are separate records, joined by “and”; a condition that tells them apart may be missing. Equal values may be shown once.
